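Luminescence from an EWS-FLI1 target-promoter (NR0B1) reporter, set against a CMV-promoter reporter, two days after silencing single genes in TC32 Ewing sarcoma cells. Each siRNA was applied at 20 nM. A z-score of the log NR0B1-over-CMV signal, less the median of siRNAs with the same seed; more negative means a stronger specific loss of the NR0B1 reporter.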

This is part of the screen; most of the strongest results are not listed here. Sequences are the guide (antisense) strand, without overhang.

Result for UCAGGUGGUGGUUUAAGUG against DNAJC5G was seed-corrected z-score 0.08036.
Result for AAACCCAUCUUUAACAUGG against DDX59 was seed-corrected z-score 0.3694.
Result for UUACGUUUCUGUUUCUCGG against CDCA5 was seed-corrected z-score -1.265.
Result for UAUGUUUUCGUUCUUGCUG against PRELID3B was seed-corrected z-score 0.863.
Result for AUCAAUUCCAGUCACACCC against COL5A3 was seed-corrected z-score 0.1051.
Result for AUCUUUGUAGGUCUCGCCC against EXOC3L4 was seed-corrected z-score -1.031.
Result for UGGUUUUUCAUCUGGAAAC against HABP4 was seed-corrected z-score 0.1188.
Result for UUUGCUAACACUGGUAUGC against UBE2V2 was seed-corrected z-score -0.1793.
Result for ACAGAGAAGACUUUGCUGC against ZNF488 was seed-corrected z-score 0.4016.
Result for AAAUCCUCCAUUGAGAUCC against CDK17 was seed-corrected z-score -0.1187.
Result for UAUGUCCUUGUGACUGUAC against FASTK was seed-corrected z-score -0.5013.
Result for UACGUUUGAACACCUUAUC against TXLNG was seed-corrected z-score -0.4913.
Result for UUGAGGUCAUCGGCUAGUC against MKL1 was seed-corrected z-score -1.197.
Result for UGAGUUUGGAGGUAGUUGC against HTR3B was seed-corrected z-score 0.8756.
Result for UUUGGUUCCAACAAUCAAG against UBE2N was seed-corrected z-score -0.2868.
Result for UUUGAUGUAACCCGGCUCC against GRIN2B was seed-corrected z-score -0.2421.
Result for ACAGUUGACAGCUACAUCC against HSD17B10 was seed-corrected z-score 0.2407.
Result for UUUUUCCAUCUCGUAAUCU against LOC401957 was seed-corrected z-score -0.2353.
Result for UGGAUGAACUUGUAGCAGC against PSEN2 was seed-corrected z-score 0.7585.
Result for UUUGAACAAUCUGUGCUCC against NFYA was seed-corrected z-score 0.5808.
Result for UUGAGUUAAGCUGUGACGG against THUMPD1 was seed-corrected z-score 0.3367.
Result for ACAGGUUCAGGCCACUUCG against MASP2 was seed-corrected z-score -1.113.
Result for UUGCUCGUCAUUGAUAACC against EP400 was seed-corrected z-score -1.035.
Result for AACUGGGAGAGUGAGAUCC against GABRR1 was seed-corrected z-score -0.9417.
Result for UAGGAGUAGCCCAAGAUGA against PIK3IP1 was seed-corrected z-score -0.3969.
Result for UCCGUUAACAGUCACACUG against LOC646976 was seed-corrected z-score -0.4779.
Result for UGAAUUCGAAGACUUCUGG against POP1 was seed-corrected z-score 0.2078.
Result for UCUUGGUCCAAAUCGACUG against LOC146880 was seed-corrected z-score -0.9803.
Result for UUUGGUCUUACAAGCGAUC against ANKRD34B was seed-corrected z-score -0.1831.
Result for UGUCUAUCAAAGAAAGGUG against OR4C12 was seed-corrected z-score -0.02309.

Repeated from the top, 3 entries:

| strand | target gene | seed-corrected z-score |
|---|---|---|
| `UCAGGUGGUGGUUUAAGUG` | DNAJC5G | 0.08036 |
| `AAACCCAUCUUUAACAUGG` | DDX59 | 0.3694 |
| `UUACGUUUCUGUUUCUCGG` | CDCA5 | -1.265 |

Data taken from PubChem BioAssay AID1159506, deposited by NCATS (2015).